Taken from: PubChem BioAssay AID1259282 (Sanger Institute, 2017)

Aim: 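siRNA screen across the kinome seeking drug combinations lethal to colorectal cancer cells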 (primary screen)
Cell system: DIFI human colorectal cancer cell line
Reagent: siRNA pool against human genes
Treatment: anchor drug at a mild dose (BYL719 1 µM, cetuximab 5 µg/ml, trametinib 10 nM) or DMSO vehicle; exposure time not given
Measured: 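Robust z-score and replicate-mean viability versus non-targeting pool without drug, plus a synergy score for each low-dose anchor drug (BYL719, cetuximab, trametinib)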
Reading the numbers: robust z-score, knock-down alone: higher = more viable cells than typical knock-down; viability, knock-down alone: higher = more viable cells
Units: viability, knock-down alone in fraction of control
Hit rule: 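Essential when the robust z-score of the knock-down without drug falls below -3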
Calls: active = essential (knock-down alone, z below -3); inactive = not essential
Here is one part, drawn at random, of 794 reagents. Of all reagents, 11 (1.4%) got an active call. 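Calls flag knock-downs that lower viability without drug; drug synergy appears only in the synergy scores; exposure time not stated.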 A number with no mark means an inactive call. No viability above 1 is reported: the scale is capped. Not all columns of the deposit are shown. The record does not give: the amount of reagent, the time to read-out.

PRKAA2: robust z-score, knock-down alone = 0.42; viability, knock-down alone = 0.957
ERBB4: robust z-score, knock-down alone = 0.715; viability, knock-down alone = 1
PIP5KL1: robust z-score, knock-down alone = -0.607; viability, knock-down alone = 0.808
PIK3CA: robust z-score, knock-down alone = -0.662; viability, knock-down alone = 0.8
UCK1: robust z-score, knock-down alone = -0.149; viability, knock-down alone = 0.875
HASPIN: robust z-score, knock-down alone = 0.418; viability, knock-down alone = 0.957
ACSL6: robust z-score, knock-down alone = 0.715; viability, knock-down alone = 1

An excerpt of the results above, for reference:
PIP5KL1: robust z-score, knock-down alone = -0.607; viability, knock-down alone = 0.808
PIK3CA: robust z-score, knock-down alone = -0.662; viability, knock-down alone = 0.8

Next results follow:
ALPK3: robust z-score, knock-down alone = 0.715; viability, knock-down alone = 1
TAF1L: robust z-score, knock-down alone = 0.715; viability, knock-down alone = 1
CREBBP: robust z-score, knock-down alone = -1.15; viability, knock-down alone = 0.73
ROR1: robust z-score, knock-down alone = 0.715; viability, knock-down alone = 1
AMHR2: robust z-score, knock-down alone = -0.632; viability, knock-down alone = 0.804
